Test results reported in PubChem BioAssay AID2685 (National Center for Advancing Translational Sciences (NCATS), 2010).
This is one part of the list. The main result of the screen is listed elsewhere. These columns were measured beside it and carry no call. The list favours compounds with an active or inconclusive main result. Words in brackets tell the shape of the fitted curve; partial curves, single points and poor fits give uncertain potencies.

Test: qHTS Assay for Lipid Storage Modulators in Drosophila S3 Cells;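 as to cell number change: cells counted by Cell Tracker Red CMTPX staining in the red channel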
Details: BODIPY lipid droplet fluorescence, 18-24 h; for cell number change: measured here: cell count max response, cells fed with added oleic acid
In short: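 Drosophila S3 cells loaded with oleic acid (400 uM, as added) and compounds at several concentrations; lipid droplets imaged by 488-nm laser-scanning cytometry, 500–530 nm intensity and object ratio to cell channel. Percent activity normalized to 20 uM Triacsin C.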

[1] = measured here: lipid fluorescence (Fed channel) AC50, cells fed with added oleic acid
[2] = measured here: cell number channel AC50, cells fed with added oleic acid

| SMILES | AC50 [1] | cell number change [%] | AC50 [2] |
| --- | --- | --- | --- |
| O=C(NCc1ccc2c(c1)OCO2)c1ccc(CS(=O)Cc2cccc(Cl)c2)o1 (stereo not given) | 6.51 µM [rising, single point] |  |  |
| Cc1cccc(NC(=O)CSc2nc(=O)n(CCCN3CCOCC3)c3c2CCCC3)c1 | 8.2 µM [rising, partial curve, poor fit] | 34.4 | 9.2 µM [rising, single point] |
| CCN(CC)S(=O)(=O)c1ccc(N2CCN(C)CC2)c(NC(=O)COc2ccc(F)cc2Cl)c1 |  |  | 4.11 µM [rising, partial curve, poor fit] |
| Nc1nc2ccccc2n1C(=O)CCc1ccccc1 |  | 170 | 32.6 µM [rising, partial curve] |
| CCN(c1ccc(OC)cc1)S(=O)(=O)c1cc(-c2cc(C)no2)ccc1C(C)C | 29.1 µM [rising, single point] | 32.5 | 29.1 µM [rising, single point] |
| CCn1c(SCC(=O)Nc2ccc(C)cc2)nnc1-c1ccccn1 | 18.4 µM [falling, single point] | 6.17 |  |
| O=C(CCC(=O)NCCCc1ccccc1)NCCCc1ccccc1 | 11.6 µM [falling, partial curve] | -1.81 |  |
| O=C(/C=C/c1ccc(O)c([N+](=O)[O-])c1)c1ccc2ccccc2c1 |  | -11.8 |  |
| COc1ccc(C)cc1NC(=O)C(=O)N/N=C(\C)CC(=O)Nc1cccnc1 | 3.26 µM [rising, partial curve] | 26.4 |  |
| O=C(OCc1nc2ccccc2s1)c1ccccc1O | 0.731 µM [falling, full curve, poor fit] | 2.81 | 0.731 µM [falling, full curve, poor fit] |
| Nn1c(Nc2ccccc2)nc2ccccc2c1=O | 20.6 µM [falling, single point] | -26.2 |  |
| CCC(C)(C)n1nnnc1C(CC(C)C)N1CCC(C(N)=O)CC1 (stereo not given) |  | -27.8 | 0.651 µM [falling, full curve, poor fit] |
| COc1cccc2cc(C(N)=O)oc12 | 35.5 µM [rising, single point] | 45.2 | 20 µM [rising, partial curve, poor fit] |
| Cc1ccc(NC(=O)c2ccc(=O)[nH]n2)cc1S(=O)(=O)Nc1ccccc1Cl | 0.103 µM [rising, full curve, poor fit] |  |  |
| O=C(NC1CCCCCCC1)c1ccc(S(=O)(=O)N2CCCC2)cc1 |  | 8.79 |  |
| Cc1[nH]nc2c1C(c1cccnc1)N(c1ccc(Br)cc1)C2=O (stereo not given) | 32.6 µM [falling, partial curve, poor fit] | -32.9 |  |
| CC(C)(CN1CCN(Cc2ccccc2)CC1)NS(=O)(=O)c1ccccc1 | 0.103 µM [falling, full curve, poor fit] | -1.07 |  |
| COc1c(OC(C)=O)ccc(/C=C/c2ccc3cccc(OCc4ccccc4)c3n2)c1[N+](=O)[O-] | 23.1 µM [falling, single point] | -23.3 |  |
| CCN1C(=O)/C(=C2/C=Cc3ccccc3N2C)OC1=S |  | 2.69 |  |
| CCS(=O)(=O)c1ccc(C(=O)NC2CC2)c(Cl)c1Cl | 0.00461 µM [rising, full curve, poor fit] | 19.5 |  |

| SMILES | AC50 [1] | cell number change [%] | AC50 [2] |
| --- | --- | --- | --- |
| Cc1[nH][nH]c(=O)c1C(c1ccc2c(c1)OCO2)c1c(C)[nH][nH]c1=O | 0.146 µM [falling, full curve, poor fit] |  |  |
| CCOC(=O)c1c(C)c(C#N)c2c3ccccc3ccn12 |  | 19.7 |  |
| O=C(CSc1nnc2ccc(-c3ccccn3)nn12)Nc1ccc(F)cc1F |  | 4 |  |
| CC(=O)NCCC(=O)N1CCc2c([nH]c3ccccc23)C1c1cccc(Cl)c1 (stereo not given) |  | -15.8 |  |
| Cc1ccc(S(=O)(=O)N2CCN(C(=O)COC(=O)CCCOc3ccccc3)CC2)c(C)c1 | 1.84 µM [falling, partial curve] | 4.04 | 6.51 µM [falling, single point] |
| COC(=O)c1cn(NC(=O)c2ccc([N+](=O)[O-])c(C)c2)c(=O)c2ccccc12 |  | 4.34 |  |
| COc1ccc(N(C)S(=O)(=O)c2ccc(Cl)c(C(=O)NNC(=O)c3ccccc3O)c2)cc1 | 0.146 µM [falling, full curve, poor fit] | -15.5 |  |
| Cc1ccc(-c2noc(CNS(=O)(=O)c3ccccc3)n2)cc1 | 8.2 µM [rising, partial curve, poor fit] | 13.2 |  |
| Cc1ccc(N2CC(C(=O)N3CCN(C(=O)c4ccco4)CC3)CC2=O)cc1 (stereo not given) |  |  | 6.51 µM [falling, single point] |
| O=C(c1ccc(Cl)c(S(=O)(=O)N2CCCC2)c1)N1CCN(c2ccc(F)cc2)CC1 | 29.1 µM [rising, partial curve] |  |  |
| CCN1CCN(CC(O)COCc2ccccc2)CC1 (stereo not given) | 32.6 µM [falling, single point] | -20.5 |  |
| O=C1CC(c2cccc(O)c2)Oc2ccccc21 (stereo not given) | 9.2 µM [rising, partial curve, poor fit] | 7.78 |  |
| Cc1ccc(N(CC(=O)Nc2ccccc2C(=O)NCc2ccco2)S(=O)(=O)c2ccccc2)cc1C | 29.1 µM [rising, single point] | 26.9 |  |
| CCOC(=O)c1c(C)[nH]c(C(=O)OCC(=O)NC(C)C)c1C | 4.11 µM [rising, partial curve] | 43.3 | 3.26 µM [rising, full curve] |
| CCC(=O)Nc1nnc(S(=O)(=O)N(CC(C)C)c2ccccc2)s1 |  | 20.2 |  |
| c1ccn(-c2ccc(N3CCOCC3)cc2)c1 | 0.517 µM [rising, single point] | -5.06 |  |
| Cc1cc(=O)oc2c(C)c(OC(C)C(=O)NCc3ccccn3)ccc12 (stereo not given) | 18.4 µM [falling, partial curve, poor fit] | -40 | 11.6 µM [falling, partial curve, poor fit] |
| CCOc1ccc(C(=O)N2CCc3ccccc32)cc1OCC |  | 11.6 |  |
| CCN1CCN(c2ccc(S(=O)(=O)N3CCCCC3)cc2NC(=O)c2ccc([N+](=O)[O-])o2)CC1 | 0.259 µM [rising, partial curve, poor fit] |  | 0.731 µM [rising, full curve, poor fit] |
| CC1=C(C)NC(=S)SC1 | 2.31 µM [falling, partial curve, poor fit] | 12.3 |  |

| SMILES | AC50 [1] | cell number change [%] | AC50 [2] |
| --- | --- | --- | --- |
| COc1ccc(CCNC(=O)c2ccc(OCc3c(C)noc3C)cc2)cc1OC | 29.1 µM [falling, single point] | 5.64 |  |
| O=c1nc2ccc(Cl)cn2c2ccc(S(=O)(=O)N3CCOCC3)cc12 | 0.651 µM [falling, full curve] | -2.14 |  |
| COC(=O)COc1ccc(-c2nccc(-c3ccc(Br)cc3)n2)cc1 | 7.31 µM [rising, partial curve] | 1.83 |  |
| CCN(CC(=O)NCc1cccs1)C(=O)c1ccc([N+](=O)[O-])o1 |  |  | 6.51 µM [falling, single point] |
| COc1cc(NC(=O)CN(C)S(=O)(=O)c2ccc3c(c2)CC(C)N3C(C)=O)cc(OC)c1 (stereo not given) |  | 5.31 | 2.59 µM [rising, partial curve, poor fit] |
| COc1ccc(C(=O)c2no[n+]([O-])c2C(=O)c2ccc(OC)cc2)cc1 | 29.1 µM [falling, single point] | -3.94 |  |
| O=C1c2cccc(Sc3ccccc3)c2C(=O)c2c(Sc3ccccc3)cccc21 | 2.31 µM [falling, full curve] | -64.9 | 3.26 µM [falling, full curve] |
| CCn1cc(CN2CCC(n3nccc3NC(=O)c3ccccc3C)CC2)c(C)n1 |  | 3.4 |  |
| COc1ccccc1CNC(=O)CCC(=O)Nc1nnc(C(C)C)s1 | 29.1 µM [rising, single point] | -6.28 |  |
| Cc1cc2oc(=O)cc(CN3CCCCC3)c2cc1O |  | 11.7 |  |
| O=C(CCc1nc(-c2ccccc2F)no1)NCCN1CCN(Cc2ccccc2)CC1 |  | -22.6 |  |
| CCOc1ccc(NC(=O)CSc2cn[nH]n2)cc1 |  | 6.43 |  |
| Cc1csc(N/N=C/c2c(F)cccc2Cl)n1 | 29.1 µM [falling, partial curve, poor fit] | -4.17 |  |
| Cc1ccc(S(=O)(=O)N(C)c2ccccc2)cc1 | 1.16 µM [falling, full curve] | -5.52 | 0.00461 µM [falling, full curve, poor fit] |
| O=C(c1ccc(Br)s1)N1CCN(Cc2ccc3c(c2)OCO3)CC1 | 18.4 µM [rising, partial curve] | 3.52 |  |
| COc1ccccc1CN(C)C(=O)c1cccc(S(=O)(=O)N2CCCc3ccccc32)c1 | 1.84 µM [rising, partial curve, poor fit] | -18.7 |  |
| COc1cc(CC(=O)Nc2nc(-c3ccccc3)c(C(C)=O)s2)cc(OC)c1OC | 29.1 µM [rising, single point] | -2.99 |  |
| Cc1ccccc1NC(=O)N1CCCC1C(=O)NCc1ccccc1 (stereo not given) | 29.1 µM [rising, single point] | 27.4 |  |
| CC(C)c1nc(CNC(=O)CC2C(=O)NCCN2Cc2cccc(F)c2F)cs1 (stereo not given) | 4.11 µM [rising, partial curve, poor fit] | 18.7 |  |
| CC(C)(C)OC(=O)NCc1ccc(CNC(=O)c2[nH]cnc2C(=O)N[C@@H](Cc2ccccc2)C(=O)OCc2ccccc2)cc1 | 2.91 µM [falling, partial curve] | 74.3 | 18.4 µM [rising, partial curve] |

Ordered by SMILES length (falling): five of the compounds above

| SMILES | AC50 [1] | cell number change [%] | AC50 [2] |
| --- | --- | --- | --- |
| CC(C)(C)OC(=O)NCc1ccc(CNC(=O)c2[nH]cnc2C(=O)N[C@@H](Cc2ccccc2)C(=O)OCc2ccccc2)cc1 | 2.91 µM [falling, partial curve] | 74.3 | 18.4 µM [rising, partial curve] |
| COc1cc(NC(=O)CN(C)S(=O)(=O)c2ccc3c(c2)CC(C)N3C(C)=O)cc(OC)c1 (stereo not given) |  | 5.31 | 2.59 µM [rising, partial curve, poor fit] |
| COc1cc(CC(=O)Nc2nc(-c3ccccc3)c(C(C)=O)s2)cc(OC)c1OC | 29.1 µM [rising, single point] | -2.99 |  |
| O=C(CCc1nc(-c2ccccc2F)no1)NCCN1CCN(Cc2ccccc2)CC1 |  | -22.6 |  |
| Cc1ccccc1NC(=O)N1CCCC1C(=O)NCc1ccccc1 (stereo not given) | 29.1 µM [rising, single point] | 27.4 |  |
